Some results were stated once for a whole list of compounds, not compound by compound.
Assay: Powder dissolution / in vitro release rate of the pure active compound, phosphate buffer pH 7.4 USP XXIV, paddle process 100 rpm
Assay type: physicochemical
Description: The measurements of the release rate was carried out according to USP XXIV.
• 1. 80 g of ibuprofen are dissolved in 100 ml of isopropanol at 40° C. Precipitation is then carried out by addition of ice water (450 ml/stirrer speed 50 rpm) during the course of 70 min. During this process cooling to 10° C. takes place. The crystals are recovered by filtration and dried in vacuo. […] 3.2 g of sucrose monolaurate are added as an additive. Precipitation is then carried out by addition of ice water (450 ml/stirrer speed 200 rpm) during the course of 70 min. During this process cooling to 10° C. takes place. The crystals are recovered by filtration, washed with ice water (3×50 ml) and dried in vacuo. […] 8 g of Tween®80 are added as an additive. Precipitation is then carried out by addition of ice water (450 ml/stirrer speed 200 rpm) during the course of 70 min. During this process cooling to 10° C. takes place. The crystals are recovered by filtration, washed with ice water (3×50 ml) and dried in vacuo. […] 80 g of ibuprofen are dissolved in 100 ml of isopropanol at 40° C. 3 g of sucrose monolaurate are added as an additive. Precipitation is then carried out by addition of ice water (450 ml/stirrer speed 200 rpm) during the course of 70 min; during this process, cooling to 10° C. takes place; the crystals are recovered by filtration, washed with ice water (3×150 ml) and dried in vacuo.

With `CC(C)Cc1ccc(C(C)C(=O)O)cc1` (stereo not shown) [Example 8, ibuprofen] the “Time after which a 100% release is seen” value was less than 30 s.
